Assay results taken from US20220348970A1, “METHODS AND COMPOSITIONS FOR 3-HYDROXYPROPIONATE PRODUCTION” (The Regents of the University of California, priority 2017, published 2022).
At least one structure is not confirmed: it was looked up by name or label, or the drawing left a doubt.

Experiments:
Format in all cases: biochemical
[1] = molecular target: T1, OAADC A0A0D6NFJ6_9PROT, SEQ ID NO: 166 (Acetobacter indonesiensis, UniProt A0A6N3T5V0); assay: OAADC kinetics of A0A0D6NFJ6_9PROT on oxaloacetate; settings: pH 7.2, 21° C.
T1 sequence (A0A6N3T5V0 with tags, fused parts or gaps): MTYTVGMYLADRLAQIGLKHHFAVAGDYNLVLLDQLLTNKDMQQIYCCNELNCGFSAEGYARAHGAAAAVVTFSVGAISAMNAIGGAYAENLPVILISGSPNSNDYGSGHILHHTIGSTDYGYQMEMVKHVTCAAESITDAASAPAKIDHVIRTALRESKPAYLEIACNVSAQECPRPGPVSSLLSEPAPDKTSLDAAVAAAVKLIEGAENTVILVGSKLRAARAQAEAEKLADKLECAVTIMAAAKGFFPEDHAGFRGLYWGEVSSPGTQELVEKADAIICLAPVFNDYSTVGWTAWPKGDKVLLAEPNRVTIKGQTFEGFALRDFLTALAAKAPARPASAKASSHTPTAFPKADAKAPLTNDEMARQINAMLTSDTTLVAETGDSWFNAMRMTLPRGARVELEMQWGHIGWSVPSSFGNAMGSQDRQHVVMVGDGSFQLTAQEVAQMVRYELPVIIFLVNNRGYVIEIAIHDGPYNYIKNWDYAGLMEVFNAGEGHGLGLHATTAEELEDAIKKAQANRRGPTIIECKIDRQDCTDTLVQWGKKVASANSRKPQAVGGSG
Procedure: All substrates were dissolved in MilliQ H2O and the pH was adjusted to 7.2 as necessary. Activity for oxaloacetate, pyruvate, and 2-ketoisovalerate was measured at a 1 mM substrate concentration. The assay was performed in a 96-well half-area plate. Each reaction contained reaction buffer (100 mM HEPES, 100 mM NaCl, 10% glycerol, pH 7.2), ADH (Sigma-Aldrich, A7011, 100 U/mL for pyruvate, 600 U/mL for oxaloacetate, and 600 U/mL for 2-ketoisovalerate), and a final concentration of 0.5 mM NADPH, 0.1 mM TPP, and 1 mM MgSO4. A range of substrate concentrations (0.1 mM-5 mM) were uSEQ to perform steady-state kinetics measurement over a period of one hour. Absorbance readings were taken at one minute intervals at 340 nm at 21° C. for 60 minutes using the Synergy H1 spectrophotometer (Biotek). Kinetic parameters (ka and Ks1) were determined by fitting initial velocity versus substrate concentration data to the Michaelis-Menten equation.
A second round of genome mining was conducted as described in Example 1, except using the 4COK sequence as the input. Genes encoding candidate OAADCs were synthesized and expressed in E. coli for further characterization. OAADC activity was assayed as described in Example 1.

[2] = molecular target: T2, pyruvate decarboxylase from Gluconacetobacter diazotrophicus (4COK), SEQ ID NO: 1 (Gluconacetobacter diazotrophicus, UniProt A9H275); assay: Steady-state kinetics of 4COK decarboxylase on pyruvate and oxaloacetate (ADH/NADPH coupled, 340 nm); settings: pH 7.2, 21° C., 0.1 mM-5 mM substrate
T2 construct: likely strain PAl 5 (ATCC 49037 / DSM 5601)
T2 sequence (A9H275 1-558): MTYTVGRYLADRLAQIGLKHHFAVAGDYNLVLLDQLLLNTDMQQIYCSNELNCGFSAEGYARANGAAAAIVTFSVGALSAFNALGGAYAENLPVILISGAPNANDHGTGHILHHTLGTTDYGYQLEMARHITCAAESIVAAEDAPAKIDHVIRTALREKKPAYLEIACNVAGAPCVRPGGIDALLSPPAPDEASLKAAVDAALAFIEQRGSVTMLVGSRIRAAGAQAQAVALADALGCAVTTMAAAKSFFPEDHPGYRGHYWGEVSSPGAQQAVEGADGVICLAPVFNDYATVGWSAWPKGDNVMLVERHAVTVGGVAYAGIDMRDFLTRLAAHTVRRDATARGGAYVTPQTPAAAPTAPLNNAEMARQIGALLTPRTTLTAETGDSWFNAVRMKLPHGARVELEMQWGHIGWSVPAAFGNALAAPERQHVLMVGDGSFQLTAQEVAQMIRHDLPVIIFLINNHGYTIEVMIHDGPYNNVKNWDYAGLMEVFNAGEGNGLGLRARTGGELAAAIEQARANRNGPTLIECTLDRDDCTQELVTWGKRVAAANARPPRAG
Procedure: Overnight cultures of BLR cells suspended in a 2 mL volume were transformed with a pet29b+ plasmid (encoding polypeptides of interest with a C-terminal His-tag) and grown in Terrific Broth with 50 μg/ml kanamycin. Cultures were diluted 1:1.000 in 500 ml of Terrific Broth with 1 mM MgSO4, 1% glucose and 50 μg/ml antibiotic and then grown at 37° C. for 24 hours. Cultures were pelleted down at 4,700 RPM for 10 minutes and resuspended in auto-induction media (LB broth, 1 mM MgSO4, 0.1 mM TPP, 1×NPS and 1×5052) for induction at 18° C. for 20 hours. […] Protein concentrations were determined using a Synergy H1 spectrophotometer (Biotek) by measuring absorbance at 280 nm using calculated extinction coefficients.
All substrates were dissolved in MilliQ H2O and the pH was adjusted to 7.2 as necessary. Activity for oxaloacetate, pyruvate, and 2-ketoisovalerate was measured at a 1 mM substrate concentration. […] Absorbance readings were taken at one minute intervals at 340 nm at 21° C. for 60 minutes using the Synergy H1 spectrophotometer (Biotek). Kinetic parameters (ka and Ks1) were determined by fitting initial velocity versus substrate concentration data to the Michaelis-Menten equation. […]

[3] = system: OAADC C7JF72_ACEP3, SEQ ID NO: 148; assay: OAADC kinetics of C7JF72_ACEP3 on oxaloacetate; settings: pH 7.2, 21° C.

## O=C(O)CC(=O)C(=O)O [Oxaloacetate]
[1]
  kcat: >121 s⁻¹
  kcat/Km: 6045.2 ± 452.5 M⁻¹ s⁻¹
[2]
  kcat: >55 s⁻¹
[3]
  Km: 15.5 mM
  kcat: 55.45 s⁻¹
  kcat/Km: 3570.5 ± 252.5 M⁻¹ s⁻¹
